Experimental data: patent US20100197767A1
These are yes or no findings as the source states them, for the method shown. Some results given as binding are weak or reduced against the parent protein; the word gives no strength.

Protein sequences, listed by entry. Tags and fused reporters are not part of them. Lines headed by an entry give the natural chain unless they say otherwise; changes in a name come on top. Residues count along the entry.
UniProt P04386: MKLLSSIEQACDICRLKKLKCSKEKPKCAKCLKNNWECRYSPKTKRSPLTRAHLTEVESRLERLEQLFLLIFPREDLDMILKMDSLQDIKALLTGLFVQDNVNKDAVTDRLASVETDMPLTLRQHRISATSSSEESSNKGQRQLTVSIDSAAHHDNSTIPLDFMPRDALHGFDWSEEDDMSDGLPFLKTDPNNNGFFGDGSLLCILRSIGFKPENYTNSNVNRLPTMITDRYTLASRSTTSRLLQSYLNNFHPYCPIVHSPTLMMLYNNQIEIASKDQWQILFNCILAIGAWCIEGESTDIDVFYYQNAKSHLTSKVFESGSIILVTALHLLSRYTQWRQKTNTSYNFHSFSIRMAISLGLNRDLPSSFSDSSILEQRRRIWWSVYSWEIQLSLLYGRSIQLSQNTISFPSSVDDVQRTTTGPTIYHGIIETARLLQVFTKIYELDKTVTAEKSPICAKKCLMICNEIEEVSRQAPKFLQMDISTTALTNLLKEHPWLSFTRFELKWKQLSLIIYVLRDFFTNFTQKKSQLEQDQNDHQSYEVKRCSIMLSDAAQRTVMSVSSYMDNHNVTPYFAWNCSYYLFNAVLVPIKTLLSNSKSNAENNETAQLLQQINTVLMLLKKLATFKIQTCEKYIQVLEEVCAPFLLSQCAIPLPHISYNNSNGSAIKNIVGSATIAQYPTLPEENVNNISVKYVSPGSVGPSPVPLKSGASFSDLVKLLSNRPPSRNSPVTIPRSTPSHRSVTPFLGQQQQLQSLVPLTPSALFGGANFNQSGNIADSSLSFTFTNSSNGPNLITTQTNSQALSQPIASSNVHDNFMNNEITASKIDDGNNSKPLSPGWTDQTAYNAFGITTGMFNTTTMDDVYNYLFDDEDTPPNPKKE
UniProt A3DH67, residues 673-741: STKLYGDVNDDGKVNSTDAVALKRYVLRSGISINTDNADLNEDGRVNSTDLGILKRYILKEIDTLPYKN

Biological target: Binding Domain fused to Coh2 (wild-type GAL4-BD/Coh2 fusion protein) (UniProt P04386)
Experiment: mammalian two-hybrid (GAL4-site luciferase reporter) in 293T cells; worded comparison

## Activation Domain fused to DocS (wild-type VP16-AD/DocS fusion protein) (from UniProt A3DH67 673-741)
  binding: binds
